In paper PMC5996148:
Several values for one entry are separate records, joined by “and”; a condition that tells them apart may be missing. Equal values may be shown once. The list shows a part of the results. For some assays here: The source does not settle which construct or isoform was used.

Experiments:
Test in all cases: protein microarray (ProtoArray v5.0), streptavidin-Alexa Fluor 647
Conditions in all cases: 3'-biotin; 20 mM Tris (pH 7.5), 5 mM MgCl2, 100 mM KCl, 0.1% Tween-20, A/T-rich and random oligonucleotide blockers; temperature not stated; high values mean tight binding
CA9 = CA9 (UniProt Q16790)
CACNG1 (human) = system: CACNG1 (human)
CACYBP = CACYBP (UniProt Q9HB71)
CALB1 (human) = system: CALB1 (human)
CALM2 (human) = system: CALM2 (human)
CALM3 = CALM3 (UniProt P0DP25)
CAMK1D (human) = system: CAMK1D (human)
CAMK4 (human) = system: CAMK4 (human)
CANT1 (human) = system: CANT1 (human)
CAPNS2 (human) = system: CAPNS2 (human)
CAPS (human) = system: CAPS (human)
CAPZA2 (human) = system: CAPZA2 (human)
CARS = biological target: T1, CARS (UniProt P49589)
T1 sequence: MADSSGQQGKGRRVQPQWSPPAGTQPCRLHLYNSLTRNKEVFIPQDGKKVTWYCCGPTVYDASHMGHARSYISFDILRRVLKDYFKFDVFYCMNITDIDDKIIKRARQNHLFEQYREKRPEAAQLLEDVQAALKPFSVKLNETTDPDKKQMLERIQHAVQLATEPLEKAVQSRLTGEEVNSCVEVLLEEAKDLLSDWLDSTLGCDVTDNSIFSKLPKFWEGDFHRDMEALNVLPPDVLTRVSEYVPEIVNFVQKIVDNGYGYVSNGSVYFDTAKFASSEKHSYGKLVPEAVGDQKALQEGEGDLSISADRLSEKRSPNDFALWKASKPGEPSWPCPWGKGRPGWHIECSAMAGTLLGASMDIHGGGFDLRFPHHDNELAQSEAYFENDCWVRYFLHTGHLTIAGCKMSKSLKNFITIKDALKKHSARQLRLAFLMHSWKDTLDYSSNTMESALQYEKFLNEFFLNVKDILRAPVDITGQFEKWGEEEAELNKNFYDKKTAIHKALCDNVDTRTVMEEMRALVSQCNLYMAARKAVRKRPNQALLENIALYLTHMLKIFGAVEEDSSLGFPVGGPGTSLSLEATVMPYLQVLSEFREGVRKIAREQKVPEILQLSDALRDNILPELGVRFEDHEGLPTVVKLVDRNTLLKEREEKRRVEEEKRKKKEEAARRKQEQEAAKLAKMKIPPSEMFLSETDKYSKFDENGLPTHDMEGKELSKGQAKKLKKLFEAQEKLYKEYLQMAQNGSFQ

CBS (human) = system: CBS (human)
CBX5 = CBX5 (UniProt P45973)
CCDC107 (human) = system: CCDC107 (human)
CCDC131 = CCDC131 (UniProt O60293)
CCDC32 (human) = system: CCDC32 (human)
CCDC40 (human) = system: CCDC40 (human)
CCDC43 = biological target: T2, CCDC43 (UniProt Q96MW1)
T2 sequence: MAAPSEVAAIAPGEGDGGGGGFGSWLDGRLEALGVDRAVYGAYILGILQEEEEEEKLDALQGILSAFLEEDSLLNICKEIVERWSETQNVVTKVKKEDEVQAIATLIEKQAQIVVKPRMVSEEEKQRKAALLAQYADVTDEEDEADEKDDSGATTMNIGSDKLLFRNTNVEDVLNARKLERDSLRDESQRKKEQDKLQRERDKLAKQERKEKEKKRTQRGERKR

## GGTGACAGGGGTATGGGGAGGGG [G4-2 biotinylated (Ct1)]
CA9
  binding signal: -0.394 z-score
CACNG1 (human)
  binding signal: -0.377 z-score
CACYBP
  binding signal: 4.32 z-score
CALB1 (human)
  binding signal: -0.374 z-score
CALM2 (human)
  binding signal: -0.386 z-score
CALM3
  binding signal: -0.385 z-score
CAMK1D (human)
  binding signal: -0.387 z-score and -0.378 z-score
CAMK4 (human)
  binding signal: -0.391 z-score
CANT1 (human)
  binding signal: -0.377 z-score
CAPNS2 (human)
  binding signal: -0.391 z-score
CAPS (human)
  binding signal: -0.406 z-score and -0.4 z-score
CAPZA2 (human)
  binding signal: -0.382 z-score
CARS
  binding signal: 4.7 z-score
CBS (human)
  binding signal: -0.394 z-score
CBX5
  binding signal: 3.82 z-score
CCDC107 (human)
  binding signal: -0.394 z-score
CCDC131
  binding signal: 3.5 z-score
CCDC32 (human)
  binding signal: -0.404 z-score
CCDC40 (human)
  binding signal: -0.38 z-score
CCDC43
  binding signal: 4.18 z-score
